In publication PMC6127144 one finds binding data, which are given here for one substance.

Chains of the proteins cited; added tags and fusions are not shown. Lines headed by an entry give the natural chain unless they say otherwise; changes in a name come on top. A line that says so, or that is headed by a name, gives the form on record, which may keep a tag or linker.
human plasma membrane Ca2+-ATPase 1, full-length human PMCA1d (P20020, form named): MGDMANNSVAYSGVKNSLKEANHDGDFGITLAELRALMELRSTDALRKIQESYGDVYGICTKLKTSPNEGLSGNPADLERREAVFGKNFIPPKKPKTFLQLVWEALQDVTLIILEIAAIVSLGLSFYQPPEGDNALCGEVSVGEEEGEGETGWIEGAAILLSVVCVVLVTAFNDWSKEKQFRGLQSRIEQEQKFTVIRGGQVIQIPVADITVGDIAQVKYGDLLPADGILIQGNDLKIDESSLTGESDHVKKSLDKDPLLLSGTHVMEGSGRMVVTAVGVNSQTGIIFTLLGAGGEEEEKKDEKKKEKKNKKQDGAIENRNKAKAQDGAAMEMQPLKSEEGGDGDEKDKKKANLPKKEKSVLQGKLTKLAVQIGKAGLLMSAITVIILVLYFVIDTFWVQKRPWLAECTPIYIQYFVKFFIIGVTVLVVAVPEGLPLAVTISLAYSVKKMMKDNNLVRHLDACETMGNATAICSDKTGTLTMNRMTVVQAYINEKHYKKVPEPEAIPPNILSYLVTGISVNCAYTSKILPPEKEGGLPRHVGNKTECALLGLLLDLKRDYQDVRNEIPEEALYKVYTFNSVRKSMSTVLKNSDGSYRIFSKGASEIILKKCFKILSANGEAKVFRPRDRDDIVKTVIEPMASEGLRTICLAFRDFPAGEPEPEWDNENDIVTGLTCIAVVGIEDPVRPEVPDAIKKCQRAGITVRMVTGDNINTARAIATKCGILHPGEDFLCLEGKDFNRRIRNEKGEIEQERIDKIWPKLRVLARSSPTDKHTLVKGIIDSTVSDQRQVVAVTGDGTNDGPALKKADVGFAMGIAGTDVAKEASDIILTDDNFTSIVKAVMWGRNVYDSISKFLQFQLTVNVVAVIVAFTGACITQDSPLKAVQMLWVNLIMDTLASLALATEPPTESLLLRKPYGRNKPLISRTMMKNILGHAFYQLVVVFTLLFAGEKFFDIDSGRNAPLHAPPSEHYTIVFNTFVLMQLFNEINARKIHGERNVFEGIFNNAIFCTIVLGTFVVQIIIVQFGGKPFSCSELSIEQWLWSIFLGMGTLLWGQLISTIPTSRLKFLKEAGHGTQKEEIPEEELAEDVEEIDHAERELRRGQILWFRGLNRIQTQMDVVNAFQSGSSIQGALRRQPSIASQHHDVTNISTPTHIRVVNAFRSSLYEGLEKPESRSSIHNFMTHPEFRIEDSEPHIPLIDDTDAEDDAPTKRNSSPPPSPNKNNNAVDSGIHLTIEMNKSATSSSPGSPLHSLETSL

No constants are given. Whether binding was seen depends on the method and setting. In cells and extracts the contact can be indirect. These calls come from enrichment with a bait or labelling near it, and not all partners need be listed.

In this test the target is human plasma membrane Ca2+-ATPase 1, full-length human PMCA1d (human) (UniProt P20020). The test is described as follows: affinity purification with mass spectrometry; hPMCA1-FLAG-His8 purified from DDM/CHS-solubilised HEK293F membranes by anti-FLAG M2 gel, Ni-NTA and SEC (Superose 6, 0.1% digitonin); ~55 kDa smear bands that co-migrated with hPMCA1 analysed by MS.

In the case of basigin (from UniProt P35613-2), the binding entry was “binds”.
